Test results as given in the supplement of paper PMC6411743.
± gives the standard deviation of the averaged measurements. Only a part is listed here, and it is no random draw.

Chains of the proteins cited; added tags and fusions are not shown. Lines headed by an entry give the natural chain unless they say otherwise; changes in a name come on top.
UniProt Q86U42: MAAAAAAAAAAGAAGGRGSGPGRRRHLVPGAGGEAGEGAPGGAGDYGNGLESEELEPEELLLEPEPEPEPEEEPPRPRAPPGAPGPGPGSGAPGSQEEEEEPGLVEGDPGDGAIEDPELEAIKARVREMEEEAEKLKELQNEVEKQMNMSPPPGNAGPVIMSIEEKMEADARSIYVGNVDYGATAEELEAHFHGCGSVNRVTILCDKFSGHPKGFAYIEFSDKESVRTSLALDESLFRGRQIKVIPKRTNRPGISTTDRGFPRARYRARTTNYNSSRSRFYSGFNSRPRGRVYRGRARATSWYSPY
UniProt Q6L8Q7: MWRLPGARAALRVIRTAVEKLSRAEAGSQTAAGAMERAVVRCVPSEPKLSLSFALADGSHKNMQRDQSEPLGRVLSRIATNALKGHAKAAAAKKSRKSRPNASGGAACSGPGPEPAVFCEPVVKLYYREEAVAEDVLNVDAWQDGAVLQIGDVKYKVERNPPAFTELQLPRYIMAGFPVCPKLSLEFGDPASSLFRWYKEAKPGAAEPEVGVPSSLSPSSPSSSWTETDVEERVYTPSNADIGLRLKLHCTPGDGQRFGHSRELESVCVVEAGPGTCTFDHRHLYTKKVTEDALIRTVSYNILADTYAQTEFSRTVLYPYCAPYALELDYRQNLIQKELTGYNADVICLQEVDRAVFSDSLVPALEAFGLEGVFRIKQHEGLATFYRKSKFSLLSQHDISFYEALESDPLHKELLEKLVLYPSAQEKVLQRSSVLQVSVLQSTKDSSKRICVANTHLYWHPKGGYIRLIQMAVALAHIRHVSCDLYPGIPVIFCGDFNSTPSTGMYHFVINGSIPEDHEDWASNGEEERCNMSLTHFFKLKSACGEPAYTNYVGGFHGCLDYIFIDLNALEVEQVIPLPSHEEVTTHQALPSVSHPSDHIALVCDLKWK
UniProt O14653: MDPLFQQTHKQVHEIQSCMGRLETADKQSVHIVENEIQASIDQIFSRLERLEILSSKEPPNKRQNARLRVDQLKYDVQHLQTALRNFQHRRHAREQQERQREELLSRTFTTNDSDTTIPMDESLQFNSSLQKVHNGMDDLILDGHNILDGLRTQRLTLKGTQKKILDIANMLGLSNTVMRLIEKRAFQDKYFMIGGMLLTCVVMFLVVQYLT
UniProt Q53GL7: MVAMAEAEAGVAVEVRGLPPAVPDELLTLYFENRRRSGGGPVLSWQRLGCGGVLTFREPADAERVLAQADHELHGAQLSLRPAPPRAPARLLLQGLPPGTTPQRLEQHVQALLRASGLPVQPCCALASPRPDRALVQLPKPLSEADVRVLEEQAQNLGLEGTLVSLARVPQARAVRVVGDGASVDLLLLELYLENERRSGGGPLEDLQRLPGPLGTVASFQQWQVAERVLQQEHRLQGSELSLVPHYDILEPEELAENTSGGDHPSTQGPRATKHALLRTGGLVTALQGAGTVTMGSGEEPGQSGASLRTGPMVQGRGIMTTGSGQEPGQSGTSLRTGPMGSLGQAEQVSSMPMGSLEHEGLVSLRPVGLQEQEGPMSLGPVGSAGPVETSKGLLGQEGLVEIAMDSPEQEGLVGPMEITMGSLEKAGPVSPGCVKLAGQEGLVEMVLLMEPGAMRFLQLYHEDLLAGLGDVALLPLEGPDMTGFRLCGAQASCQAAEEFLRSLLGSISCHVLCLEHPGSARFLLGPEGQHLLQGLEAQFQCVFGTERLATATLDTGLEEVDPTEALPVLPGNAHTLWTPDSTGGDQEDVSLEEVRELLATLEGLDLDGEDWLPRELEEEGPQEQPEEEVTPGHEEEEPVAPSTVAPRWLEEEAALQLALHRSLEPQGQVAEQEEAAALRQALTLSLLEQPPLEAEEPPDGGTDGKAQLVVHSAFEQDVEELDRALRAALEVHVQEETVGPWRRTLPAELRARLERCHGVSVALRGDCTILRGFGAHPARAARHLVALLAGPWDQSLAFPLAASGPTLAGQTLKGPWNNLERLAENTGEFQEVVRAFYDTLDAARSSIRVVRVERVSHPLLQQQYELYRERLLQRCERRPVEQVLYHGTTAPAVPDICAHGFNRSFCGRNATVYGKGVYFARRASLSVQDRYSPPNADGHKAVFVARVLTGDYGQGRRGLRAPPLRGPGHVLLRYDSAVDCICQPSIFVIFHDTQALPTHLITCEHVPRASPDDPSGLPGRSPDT
UniProt Q9NQV6: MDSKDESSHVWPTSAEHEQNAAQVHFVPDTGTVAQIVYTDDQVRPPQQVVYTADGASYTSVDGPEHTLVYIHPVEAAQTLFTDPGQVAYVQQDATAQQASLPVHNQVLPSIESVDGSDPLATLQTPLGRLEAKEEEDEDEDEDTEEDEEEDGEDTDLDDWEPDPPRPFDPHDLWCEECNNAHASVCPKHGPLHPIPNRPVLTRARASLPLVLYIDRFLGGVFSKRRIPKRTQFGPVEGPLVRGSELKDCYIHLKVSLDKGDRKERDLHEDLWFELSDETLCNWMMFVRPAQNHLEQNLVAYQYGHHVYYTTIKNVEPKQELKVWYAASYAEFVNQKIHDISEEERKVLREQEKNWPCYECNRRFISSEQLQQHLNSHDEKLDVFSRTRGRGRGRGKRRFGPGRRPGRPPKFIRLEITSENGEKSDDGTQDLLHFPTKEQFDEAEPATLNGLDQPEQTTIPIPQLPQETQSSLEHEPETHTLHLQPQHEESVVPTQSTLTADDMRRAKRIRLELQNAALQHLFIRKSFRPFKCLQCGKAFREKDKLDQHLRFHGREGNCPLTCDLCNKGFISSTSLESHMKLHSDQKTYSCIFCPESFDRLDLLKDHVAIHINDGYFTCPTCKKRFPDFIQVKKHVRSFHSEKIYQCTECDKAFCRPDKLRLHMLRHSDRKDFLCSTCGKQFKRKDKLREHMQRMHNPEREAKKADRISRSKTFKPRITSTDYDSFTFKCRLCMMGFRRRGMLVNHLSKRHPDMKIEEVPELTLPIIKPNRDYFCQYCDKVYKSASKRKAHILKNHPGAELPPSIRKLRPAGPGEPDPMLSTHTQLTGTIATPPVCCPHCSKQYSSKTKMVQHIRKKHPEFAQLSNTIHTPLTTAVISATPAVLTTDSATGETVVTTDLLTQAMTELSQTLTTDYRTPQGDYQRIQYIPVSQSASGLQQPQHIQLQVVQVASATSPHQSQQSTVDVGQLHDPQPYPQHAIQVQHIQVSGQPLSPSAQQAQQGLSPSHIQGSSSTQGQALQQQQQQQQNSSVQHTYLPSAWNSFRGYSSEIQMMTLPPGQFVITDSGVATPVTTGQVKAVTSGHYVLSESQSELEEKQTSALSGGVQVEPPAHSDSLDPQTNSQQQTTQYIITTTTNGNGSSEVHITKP
UniProt P29597: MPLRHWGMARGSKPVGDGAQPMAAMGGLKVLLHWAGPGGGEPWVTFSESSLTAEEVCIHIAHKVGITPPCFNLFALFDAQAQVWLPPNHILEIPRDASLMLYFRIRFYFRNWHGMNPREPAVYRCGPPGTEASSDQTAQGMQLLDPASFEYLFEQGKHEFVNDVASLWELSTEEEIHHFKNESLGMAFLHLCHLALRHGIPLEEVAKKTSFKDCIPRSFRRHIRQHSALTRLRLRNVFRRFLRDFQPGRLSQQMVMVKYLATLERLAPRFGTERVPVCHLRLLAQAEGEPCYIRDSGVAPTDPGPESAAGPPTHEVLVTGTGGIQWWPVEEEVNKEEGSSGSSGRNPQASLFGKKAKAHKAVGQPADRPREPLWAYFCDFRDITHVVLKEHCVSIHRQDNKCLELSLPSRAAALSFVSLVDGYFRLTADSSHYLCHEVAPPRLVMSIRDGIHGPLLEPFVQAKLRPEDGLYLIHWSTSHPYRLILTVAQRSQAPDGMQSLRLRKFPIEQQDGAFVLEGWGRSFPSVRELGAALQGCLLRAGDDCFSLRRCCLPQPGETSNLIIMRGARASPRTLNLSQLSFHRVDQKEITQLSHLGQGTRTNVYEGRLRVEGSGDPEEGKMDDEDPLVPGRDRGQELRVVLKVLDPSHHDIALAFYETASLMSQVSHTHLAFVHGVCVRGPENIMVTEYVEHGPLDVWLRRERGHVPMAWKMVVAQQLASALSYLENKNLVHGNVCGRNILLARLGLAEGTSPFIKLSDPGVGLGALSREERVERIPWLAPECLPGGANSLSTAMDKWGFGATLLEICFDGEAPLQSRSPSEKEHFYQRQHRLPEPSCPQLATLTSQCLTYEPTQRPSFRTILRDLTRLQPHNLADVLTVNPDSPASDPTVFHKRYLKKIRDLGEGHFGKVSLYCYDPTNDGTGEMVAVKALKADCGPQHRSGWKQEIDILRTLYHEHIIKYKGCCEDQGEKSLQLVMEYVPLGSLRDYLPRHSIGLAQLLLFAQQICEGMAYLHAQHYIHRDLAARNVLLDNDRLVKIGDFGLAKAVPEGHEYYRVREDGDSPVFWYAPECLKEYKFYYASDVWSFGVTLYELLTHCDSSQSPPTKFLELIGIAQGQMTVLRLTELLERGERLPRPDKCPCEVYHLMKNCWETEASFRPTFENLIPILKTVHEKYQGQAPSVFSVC
UniProt P61803: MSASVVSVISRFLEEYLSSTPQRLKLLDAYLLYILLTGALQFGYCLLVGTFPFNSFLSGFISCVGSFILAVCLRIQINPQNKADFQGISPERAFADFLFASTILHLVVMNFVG
UniProt O15182: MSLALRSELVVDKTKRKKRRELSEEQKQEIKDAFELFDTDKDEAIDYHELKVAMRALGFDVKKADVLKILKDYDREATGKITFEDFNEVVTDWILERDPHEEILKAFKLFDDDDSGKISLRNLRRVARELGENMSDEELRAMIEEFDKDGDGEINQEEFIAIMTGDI
UniProt P30203: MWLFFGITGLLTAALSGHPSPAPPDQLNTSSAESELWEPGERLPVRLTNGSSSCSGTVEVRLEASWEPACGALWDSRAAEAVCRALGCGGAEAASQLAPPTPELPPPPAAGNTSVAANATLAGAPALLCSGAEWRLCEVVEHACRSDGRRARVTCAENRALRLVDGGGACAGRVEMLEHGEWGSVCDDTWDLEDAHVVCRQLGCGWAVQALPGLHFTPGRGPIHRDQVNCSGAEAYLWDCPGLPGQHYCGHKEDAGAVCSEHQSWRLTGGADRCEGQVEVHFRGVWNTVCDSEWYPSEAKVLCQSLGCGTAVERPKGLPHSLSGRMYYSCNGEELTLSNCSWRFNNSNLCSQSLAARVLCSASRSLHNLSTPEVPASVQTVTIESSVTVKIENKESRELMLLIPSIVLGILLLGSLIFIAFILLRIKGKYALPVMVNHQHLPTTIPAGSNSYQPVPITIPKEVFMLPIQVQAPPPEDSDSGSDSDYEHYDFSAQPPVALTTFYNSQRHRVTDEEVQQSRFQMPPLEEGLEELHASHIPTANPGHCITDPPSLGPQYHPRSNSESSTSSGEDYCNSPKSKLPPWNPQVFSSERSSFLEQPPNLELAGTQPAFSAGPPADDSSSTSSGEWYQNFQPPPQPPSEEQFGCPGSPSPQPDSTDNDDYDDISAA
UniProt Q13490, whole entry: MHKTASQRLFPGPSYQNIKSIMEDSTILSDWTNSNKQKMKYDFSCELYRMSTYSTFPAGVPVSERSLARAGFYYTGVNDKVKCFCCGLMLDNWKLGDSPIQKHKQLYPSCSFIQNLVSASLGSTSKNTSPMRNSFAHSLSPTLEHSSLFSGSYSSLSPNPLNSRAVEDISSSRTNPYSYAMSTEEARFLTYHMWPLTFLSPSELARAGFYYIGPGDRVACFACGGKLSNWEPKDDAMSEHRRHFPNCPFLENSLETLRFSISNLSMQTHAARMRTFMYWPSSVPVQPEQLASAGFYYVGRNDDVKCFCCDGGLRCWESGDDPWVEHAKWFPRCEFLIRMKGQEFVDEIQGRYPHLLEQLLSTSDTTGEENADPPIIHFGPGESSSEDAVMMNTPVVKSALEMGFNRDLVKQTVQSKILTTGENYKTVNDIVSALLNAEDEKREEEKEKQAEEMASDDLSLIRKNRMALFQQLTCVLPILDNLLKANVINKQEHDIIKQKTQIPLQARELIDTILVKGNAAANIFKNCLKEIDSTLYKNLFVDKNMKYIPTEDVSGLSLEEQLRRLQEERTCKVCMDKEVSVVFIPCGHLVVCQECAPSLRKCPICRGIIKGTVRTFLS
UniProt Q9UJ41, whole entry: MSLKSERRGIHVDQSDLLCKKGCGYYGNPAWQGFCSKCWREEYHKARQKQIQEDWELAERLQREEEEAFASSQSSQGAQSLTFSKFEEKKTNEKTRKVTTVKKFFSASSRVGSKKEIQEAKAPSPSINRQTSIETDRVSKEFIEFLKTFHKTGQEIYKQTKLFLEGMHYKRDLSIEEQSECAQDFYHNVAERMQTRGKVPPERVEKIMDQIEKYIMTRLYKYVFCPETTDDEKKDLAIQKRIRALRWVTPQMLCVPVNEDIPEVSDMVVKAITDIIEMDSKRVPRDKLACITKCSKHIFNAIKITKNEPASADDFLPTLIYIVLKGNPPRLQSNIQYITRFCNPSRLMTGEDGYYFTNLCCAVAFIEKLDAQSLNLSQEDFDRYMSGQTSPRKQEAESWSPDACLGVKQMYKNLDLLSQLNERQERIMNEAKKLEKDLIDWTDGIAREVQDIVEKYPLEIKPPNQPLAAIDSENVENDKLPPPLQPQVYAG

Compound: Nc1ncnc2c1ncn2[C@@H]1O[C@H](COP(=O)(O)OP(=O)(O)OP(=O)(O)O)[C@@H](O)[C@H]1O [adenosine triphosphate]
Test: NP40-soluble protein abundance relative to vehicle (solubility fold change) (ratio); higher = more soluble protein in presence of ATP
Outline: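 Data come from three independent experiments in which Dounce-homogenised Jurkat crude lysate was treated at eight concentrations from 0.1 to 10 mM. Treatment ran 10 min at room temperature and then 3 min at 37 °C, after which 0.8% NP40 and benzonase were added for 60 min at 4 °C before ultracentrifugation. The supernatant underwent TMT labelling and LC-MS/MS, and vsn-normalised intensities were expressed as fold change against the detergent-processed vehicle in each replicate.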

| Target | NP40-soluble protein abundance (concentration: 1mM) | NP40-soluble protein abundance (concentration: 2mM) | NP40-soluble protein abundance (concentration: 4mM) | NP40-soluble protein abundance (concentration: 6mM) | NP40-soluble protein abundance (concentration: 8mM) | NP40-soluble protein abundance (concentration: 10mM) |
| --- | --- | --- | --- | --- | --- | --- |
| E9PIM6 and related entries (UniProt P04216) | 0.932 ± 0.027 | 1.01 ± 0.02 | 0.961 ± 0.025 | 0.951 ± 0.096 | 0.874 ± 0.028 | 0.918 ± 0.13 |
| F8VU39 and related entries (UniProt Q9UIF9) | 1.06 ± 0.039 | 1.1 ± 0.096 | 1.091 ± 0.0019 | 1.16 ± 0.088 | 1.1 ± 0.06 | 1.15 ± 0.055 |
| E9PPG8 and related entries (UniProt Q53FT3) | 1.02 ± 0.15 | 1.02 ± 0.16 | 0.999 ± 0.14 | 0.979 ± 0.15 | 1.01 ± 0.11 | 0.975 ± 0.064 |
| E9PR30 and related entries (UniProt P62861) | 0.899 ± 0.15 | 0.843 ± 0.15 | 0.806 ± 0.15 | 0.751 ± 0.21 | 0.669 ± 0.084 | 0.788 ± 0.13 |
| E3W994 and related entries (UniProt O75122) | 1.19 ± 0.087 | 1.21 ± 0.084 | 1.24 ± 0.087 | 1.28 ± 0.093 | 1.26 ± 0.086 | 1.3 ± 0.086 |
| E7EQN5 and related entries (UniProt P98171) | 1 ± 0.04 | 0.9972 ± 0.0072 | 0.981 ± 0.01 | 0.99 ± 0.015 | 0.9789 ± 0.0044 | 0.987 ± 0.028 |
| F5H658 and related entries (UniProt Q14562) | 1.32 ± 0.046 | 1.3 ± 0.059 | 1.41 ± 0.023 | 1.47 ± 0.042 | 1.57 ± 0.055 | 1.61 ± 0.1 |
| G3V4T2 and related entries (UniProt Q86U42) | 0.964 ± 0.073 | 0.963 ± 0.035 | 0.97 ± 0.03 | 1.03 ± 0.072 | 0.994 ± 0.019 | 0.993 ± 0.014 |
| F6T1Q0 and related entries (UniProt Q6L8Q7) | 1.05 ± 0.063 | 1.03 ± 0.08 | 1.03 ± 0.066 | 1.01 ± 0.11 | 1.04 ± 0.073 | 1.01 ± 0.054 |
| E7EQ34 and related entries (UniProt O14653+I3L4Z6+E7EQ34) | 1 ± 0.1 | 1 ± 0.092 | 1.03 ± 0.038 | 1.05 ± 0.086 | 1.02 ± 0.066 | 0.971 ± 0.051 |
| E7ESG2 and related entries (UniProt Q9HAW4) | 1.03 ± 0.051 | 1.03 ± 0.078 | 1.05 ± 0.072 | 1.03 ± 0.1 | 1 ± 0.065 | 1.05 ± 0.078 |
| E9PMR4 and related entries (UniProt P48509) | 0.919 ± 0.1 | 0.928 ± 0.05 | 0.926 ± 0.044 | 0.921 ± 0.03 | 0.865 ± 0.057 | 0.876 ± 0.027 |
| E9PK67 and related entries (UniProt Q53GL7) | 0.997 ± 0.015 | 0.99 ± 0.022 | 0.982 ± 0.015 | 0.9698 ± 0.0013 | 0.947 ± 0.015 | 0.961 ± 0.034 |
| E9PLV1 and related entries (UniProt Q9NQV6) | 0.962 ± 0.051 | 0.956 ± 0.091 | 0.983 ± 0.068 | 0.954 ± 0.046 | 0.939 ± 0.073 | 0.94 ± 0.063 |
| E9PQ56 and related entries (UniProt Q9UHX1) | 1.277 ± 0.012 | 1.27 ± 0.036 | 1.24 ± 0.017 | 1.28 ± 0.047 | 1.285 ± 0.0088 | 1.26 ± 0.034 |
| F5GXJ1 and related entries (UniProt O75251) | 0.945 ± 0.091 | 0.917 ± 0.08 | 0.891 ± 0.05 | 0.839 ± 0.034 | 0.909 ± 0.1 | 0.92 ± 0.085 |
| G3V1P3 and related entries (UniProt Q969J3+G3V1P3) | 0.956 ± 0.015 | 0.962 ± 0.022 | 0.941 ± 0.015 | 0.919 ± 0.072 | 0.942 ± 0.025 | 0.917 ± 0.067 |
| E9PM19 and related entries (UniProt P29597) | 1.4 ± 0.019 | 1.31 ± 0.043 | 1.38 ± 0.044 | 1.31 ± 0.13 | 1.43 ± 0.12 | 1.39 ± 0.016 |
| E7EMW7 and related entries (UniProt O95071) | 1.17 ± 0.043 | 1.11 ± 0.066 | 1.1 ± 0.062 | 1.12 ± 0.17 | 1.12 ± 0.13 | 1.11 ± 0.11 |
| E7EWW9 and related entries (UniProt P09488) | 0.856 ± 0.17 | 0.89 ± 0.1 | 0.854 ± 0.059 | 0.768 ± 0.19 | 0.838 ± 0.056 | 0.848 ± 0.071 |
| E7EVA8 and related entries (UniProt Q9BY41) | 1.1 ± 0.053 | 1.02 ± 0.063 | 1.01 ± 0.076 | 1 ± 0.14 | 1.07 ± 0.055 | 1.04 ± 0.12 |
| F5GXX5 and related entries (UniProt P61803) | 0.882 ± 0.097 | 0.901 ± 0.044 | 0.893 ± 0.016 | 0.9 ± 0.088 | 0.895 ± 0.013 | 0.906 ± 0.022 |
| E5RJF8 and related entries (UniProt O15182) | 0.91 ± 0.065 | 0.923 ± 0.025 | 0.873 ± 0.057 | 0.991 ± 0.035 | 0.929 ± 0.029 | 0.945 ± 0.065 |
| E7EW50 and related entries (UniProt O75376) | 1.01 ± 0.037 | 1 ± 0.054 | 1 ± 0.042 | 1.06 ± 0.082 | 1.02 ± 0.041 | 1.06 ± 0.052 |
| G5E973 and related entries (UniProt P30203) | 1.01 ± 0.12 | 0.981 ± 0.078 | 1.04 ± 0.075 | 1.05 ± 0.14 | 1.01 ± 0.082 | 0.977 ± 0.061 |
| E9PMH5 and related entries (UniProt Q13490) | 1.02 ± 0.13 | 1.12 ± 0.059 | 1.11 ± 0.1 | 1.09 ± 0.11 | 1.08 ± 0.16 | 1.13 ± 0.13 |
| E7ETY2 and related entries (UniProt Q13428) | 1.19 ± 0.12 | 1.17 ± 0.051 | 1.18 ± 0.062 | 1.3 ± 0.087 | 1.25 ± 0.049 | 1.23 ± 0.057 |
| E9PFK9 and related entries (UniProt Q9UJ41) | 0.981 ± 0.011 | 0.991 ± 0.014 | 0.988 ± 0.029 | 0.967 ± 0.049 | 0.9617 ± 0.0065 | 0.998 ± 0.038 |
| E7EUU4 and related entries (UniProt Q04637) | 1.09 ± 0.046 | 1.1 ± 0.014 | 1.11 ± 0.031 | 1.13 ± 0.028 | 1.126 ± 0.0077 | 1.142 ± 0.0076 |
| E9PIC6 and related entries (UniProt P06746) | 1.09 ± 0.041 | 1.07 ± 0.013 | 1.07 ± 0.011 | 1.15 ± 0.022 | 1.13 ± 0.018 | 1.144 ± 0.0095 |

Some of the entries so far, with tabs.
Target	NP40-soluble protein abundance (concentration: 1mM)	NP40-soluble protein abundance (concentration: 2mM)	NP40-soluble protein abundance (concentration: 4mM)	NP40-soluble protein abundance (concentration: 6mM)	NP40-soluble protein abundance (concentration: 8mM)	NP40-soluble protein abundance (concentration: 10mM)
E9PM19 and related entries (UniProt P29597)	1.4 ± 0.019	1.31 ± 0.043	1.38 ± 0.044	1.31 ± 0.13	1.43 ± 0.12	1.39 ± 0.016
E7EMW7 and related entries (UniProt O95071)	1.17 ± 0.043	1.11 ± 0.066	1.1 ± 0.062	1.12 ± 0.17	1.12 ± 0.13	1.11 ± 0.11
E7EWW9 and related entries (UniProt P09488)	0.856 ± 0.17	0.89 ± 0.1	0.854 ± 0.059	0.768 ± 0.19	0.838 ± 0.056	0.848 ± 0.071
E7EVA8 and related entries (UniProt Q9BY41)	1.1 ± 0.053	1.02 ± 0.063	1.01 ± 0.076	1 ± 0.14	1.07 ± 0.055	1.04 ± 0.12
F5GXX5 and related entries (UniProt P61803)	0.882 ± 0.097	0.901 ± 0.044	0.893 ± 0.016	0.9 ± 0.088	0.895 ± 0.013	0.906 ± 0.022
E5RJF8 and related entries (UniProt O15182)	0.91 ± 0.065	0.923 ± 0.025	0.873 ± 0.057	0.991 ± 0.035	0.929 ± 0.029	0.945 ± 0.065
